Source: the supplement of paper PMC12067093, “Discovery and optimisation of a covalent ligand for TRIM25 and its application to targeted protein ubiquitination” (Chemical Science, 2025)
The list shows a part of the results.

Sequences of proteins named here, by UniProt entry; tags and fusion partners are left off. A change or cut given only in a name is not applied to a line headed by its entry.
UniProt Q9H2C2: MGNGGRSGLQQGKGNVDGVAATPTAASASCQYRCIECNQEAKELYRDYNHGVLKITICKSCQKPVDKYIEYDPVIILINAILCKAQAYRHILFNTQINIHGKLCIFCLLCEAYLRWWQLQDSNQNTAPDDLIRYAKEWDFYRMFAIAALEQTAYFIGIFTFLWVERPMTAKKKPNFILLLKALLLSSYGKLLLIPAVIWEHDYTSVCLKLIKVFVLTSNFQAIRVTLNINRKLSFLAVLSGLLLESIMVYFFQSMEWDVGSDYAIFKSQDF
UniProt Q9NT62, whole entry, looked up: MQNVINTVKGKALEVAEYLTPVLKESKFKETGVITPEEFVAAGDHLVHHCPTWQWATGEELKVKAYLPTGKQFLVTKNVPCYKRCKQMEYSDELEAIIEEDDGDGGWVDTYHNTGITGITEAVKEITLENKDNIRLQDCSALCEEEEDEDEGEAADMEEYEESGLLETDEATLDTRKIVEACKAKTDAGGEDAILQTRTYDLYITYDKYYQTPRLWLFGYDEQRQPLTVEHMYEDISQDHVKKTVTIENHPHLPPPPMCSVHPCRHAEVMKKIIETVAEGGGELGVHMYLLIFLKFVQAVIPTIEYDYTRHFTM
UniProt Q93084: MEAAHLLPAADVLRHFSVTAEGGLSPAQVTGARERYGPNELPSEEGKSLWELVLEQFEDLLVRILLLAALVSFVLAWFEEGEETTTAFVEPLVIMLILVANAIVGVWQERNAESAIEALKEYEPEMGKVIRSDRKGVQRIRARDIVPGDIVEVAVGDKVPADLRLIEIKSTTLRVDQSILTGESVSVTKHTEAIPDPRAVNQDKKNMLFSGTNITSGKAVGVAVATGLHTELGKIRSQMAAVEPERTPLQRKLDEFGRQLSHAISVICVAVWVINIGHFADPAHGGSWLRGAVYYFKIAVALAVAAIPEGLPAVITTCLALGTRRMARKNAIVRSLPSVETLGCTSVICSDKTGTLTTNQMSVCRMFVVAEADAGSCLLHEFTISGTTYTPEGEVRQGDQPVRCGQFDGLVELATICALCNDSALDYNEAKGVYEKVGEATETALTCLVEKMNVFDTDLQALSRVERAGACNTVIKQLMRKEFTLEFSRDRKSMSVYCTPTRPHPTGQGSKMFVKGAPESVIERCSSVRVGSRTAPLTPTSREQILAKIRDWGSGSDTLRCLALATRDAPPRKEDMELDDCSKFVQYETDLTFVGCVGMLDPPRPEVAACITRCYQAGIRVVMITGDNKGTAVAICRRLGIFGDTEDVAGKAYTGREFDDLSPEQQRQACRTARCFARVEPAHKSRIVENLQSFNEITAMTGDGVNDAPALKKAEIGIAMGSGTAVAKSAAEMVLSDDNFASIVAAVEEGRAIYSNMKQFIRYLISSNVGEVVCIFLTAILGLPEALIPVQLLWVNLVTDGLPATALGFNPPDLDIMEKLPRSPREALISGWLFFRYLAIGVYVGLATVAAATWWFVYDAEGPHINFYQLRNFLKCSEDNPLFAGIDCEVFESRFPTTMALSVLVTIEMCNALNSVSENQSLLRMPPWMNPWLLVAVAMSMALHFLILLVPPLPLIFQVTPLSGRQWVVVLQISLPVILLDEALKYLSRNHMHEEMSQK
UniProt O00244: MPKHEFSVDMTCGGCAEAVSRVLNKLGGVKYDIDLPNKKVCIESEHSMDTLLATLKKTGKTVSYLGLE
UniProt O75348, whole entry, looked up: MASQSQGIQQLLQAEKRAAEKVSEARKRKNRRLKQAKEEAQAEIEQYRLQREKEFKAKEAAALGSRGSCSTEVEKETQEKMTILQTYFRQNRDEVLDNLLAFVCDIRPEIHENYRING
UniProt Q8N3C0, whole entry, looked up: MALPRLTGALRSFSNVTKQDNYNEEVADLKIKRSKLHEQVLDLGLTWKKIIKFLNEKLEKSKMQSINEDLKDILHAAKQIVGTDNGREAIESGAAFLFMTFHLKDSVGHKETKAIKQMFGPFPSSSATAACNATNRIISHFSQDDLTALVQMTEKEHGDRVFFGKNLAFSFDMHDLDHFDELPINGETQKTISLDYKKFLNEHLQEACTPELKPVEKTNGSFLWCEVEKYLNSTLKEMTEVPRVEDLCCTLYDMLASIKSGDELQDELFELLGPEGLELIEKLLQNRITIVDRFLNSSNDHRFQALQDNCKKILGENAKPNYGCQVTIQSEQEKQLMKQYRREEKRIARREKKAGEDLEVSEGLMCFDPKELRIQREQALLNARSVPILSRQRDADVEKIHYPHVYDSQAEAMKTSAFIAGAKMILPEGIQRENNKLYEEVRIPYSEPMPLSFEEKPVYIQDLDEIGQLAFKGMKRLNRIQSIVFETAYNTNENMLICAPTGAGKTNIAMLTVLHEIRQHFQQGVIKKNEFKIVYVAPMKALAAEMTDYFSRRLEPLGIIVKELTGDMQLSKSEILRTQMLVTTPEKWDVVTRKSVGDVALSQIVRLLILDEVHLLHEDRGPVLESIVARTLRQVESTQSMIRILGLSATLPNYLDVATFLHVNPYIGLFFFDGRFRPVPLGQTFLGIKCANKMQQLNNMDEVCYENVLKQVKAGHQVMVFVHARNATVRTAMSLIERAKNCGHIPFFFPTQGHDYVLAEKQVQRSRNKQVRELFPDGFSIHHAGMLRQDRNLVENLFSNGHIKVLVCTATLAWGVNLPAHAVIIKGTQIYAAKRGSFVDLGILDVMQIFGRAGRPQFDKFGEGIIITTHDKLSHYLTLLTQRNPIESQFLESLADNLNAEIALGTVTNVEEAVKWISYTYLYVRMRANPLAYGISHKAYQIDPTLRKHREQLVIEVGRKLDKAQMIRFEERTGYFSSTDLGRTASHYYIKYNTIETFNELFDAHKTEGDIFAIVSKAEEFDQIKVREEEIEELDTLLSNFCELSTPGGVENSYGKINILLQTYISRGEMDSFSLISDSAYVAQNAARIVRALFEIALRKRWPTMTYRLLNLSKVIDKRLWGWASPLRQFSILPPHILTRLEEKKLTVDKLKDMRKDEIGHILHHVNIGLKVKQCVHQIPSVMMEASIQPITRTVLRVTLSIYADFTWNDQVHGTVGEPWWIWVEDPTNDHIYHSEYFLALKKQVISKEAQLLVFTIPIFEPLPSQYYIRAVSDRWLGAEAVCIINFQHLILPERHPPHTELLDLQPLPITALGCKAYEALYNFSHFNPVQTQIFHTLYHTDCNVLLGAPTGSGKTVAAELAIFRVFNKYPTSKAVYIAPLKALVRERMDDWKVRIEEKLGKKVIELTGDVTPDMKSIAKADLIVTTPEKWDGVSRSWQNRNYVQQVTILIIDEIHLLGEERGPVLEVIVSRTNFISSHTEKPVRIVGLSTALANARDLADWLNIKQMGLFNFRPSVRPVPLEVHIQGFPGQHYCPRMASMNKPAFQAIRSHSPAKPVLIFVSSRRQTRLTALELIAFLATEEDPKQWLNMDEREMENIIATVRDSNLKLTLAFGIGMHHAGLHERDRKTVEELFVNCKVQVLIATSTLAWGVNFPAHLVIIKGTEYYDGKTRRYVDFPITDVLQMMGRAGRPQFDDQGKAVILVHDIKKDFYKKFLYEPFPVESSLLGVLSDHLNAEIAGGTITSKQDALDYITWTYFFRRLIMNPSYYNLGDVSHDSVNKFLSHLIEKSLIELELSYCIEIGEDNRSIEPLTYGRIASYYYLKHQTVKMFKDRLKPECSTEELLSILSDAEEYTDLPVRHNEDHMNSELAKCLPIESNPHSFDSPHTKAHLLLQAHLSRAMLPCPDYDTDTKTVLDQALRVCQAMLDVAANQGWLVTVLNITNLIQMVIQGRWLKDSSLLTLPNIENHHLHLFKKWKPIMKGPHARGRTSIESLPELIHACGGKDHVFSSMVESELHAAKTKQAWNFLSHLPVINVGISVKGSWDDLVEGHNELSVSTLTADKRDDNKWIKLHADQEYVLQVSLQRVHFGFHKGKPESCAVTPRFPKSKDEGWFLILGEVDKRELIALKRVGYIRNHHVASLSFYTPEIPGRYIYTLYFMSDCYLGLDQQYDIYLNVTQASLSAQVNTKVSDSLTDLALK
UniProt P98194: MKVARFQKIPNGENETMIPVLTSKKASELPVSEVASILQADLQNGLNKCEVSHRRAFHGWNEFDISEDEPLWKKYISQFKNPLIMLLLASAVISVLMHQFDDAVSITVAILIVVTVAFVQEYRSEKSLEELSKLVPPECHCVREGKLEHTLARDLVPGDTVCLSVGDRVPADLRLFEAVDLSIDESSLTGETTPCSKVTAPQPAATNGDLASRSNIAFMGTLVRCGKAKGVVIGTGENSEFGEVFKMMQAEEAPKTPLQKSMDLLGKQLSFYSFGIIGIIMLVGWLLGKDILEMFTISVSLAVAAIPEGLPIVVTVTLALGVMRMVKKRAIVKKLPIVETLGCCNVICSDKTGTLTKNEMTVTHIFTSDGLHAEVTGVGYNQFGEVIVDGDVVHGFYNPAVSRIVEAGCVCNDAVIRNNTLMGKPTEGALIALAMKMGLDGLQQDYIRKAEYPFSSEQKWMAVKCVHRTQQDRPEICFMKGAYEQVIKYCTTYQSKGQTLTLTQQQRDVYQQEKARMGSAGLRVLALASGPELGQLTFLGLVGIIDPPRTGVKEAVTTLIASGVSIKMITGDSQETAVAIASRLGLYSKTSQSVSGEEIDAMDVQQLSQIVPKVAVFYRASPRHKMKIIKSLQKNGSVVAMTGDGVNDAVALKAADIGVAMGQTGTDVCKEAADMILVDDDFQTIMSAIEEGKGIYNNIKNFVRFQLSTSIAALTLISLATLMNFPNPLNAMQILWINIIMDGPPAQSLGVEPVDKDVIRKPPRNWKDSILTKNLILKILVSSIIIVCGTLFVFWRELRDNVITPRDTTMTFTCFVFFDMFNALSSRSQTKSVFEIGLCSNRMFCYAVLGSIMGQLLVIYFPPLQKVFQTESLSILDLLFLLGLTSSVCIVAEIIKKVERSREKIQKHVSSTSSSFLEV
UniProt Q9UI12, whole entry, looked up: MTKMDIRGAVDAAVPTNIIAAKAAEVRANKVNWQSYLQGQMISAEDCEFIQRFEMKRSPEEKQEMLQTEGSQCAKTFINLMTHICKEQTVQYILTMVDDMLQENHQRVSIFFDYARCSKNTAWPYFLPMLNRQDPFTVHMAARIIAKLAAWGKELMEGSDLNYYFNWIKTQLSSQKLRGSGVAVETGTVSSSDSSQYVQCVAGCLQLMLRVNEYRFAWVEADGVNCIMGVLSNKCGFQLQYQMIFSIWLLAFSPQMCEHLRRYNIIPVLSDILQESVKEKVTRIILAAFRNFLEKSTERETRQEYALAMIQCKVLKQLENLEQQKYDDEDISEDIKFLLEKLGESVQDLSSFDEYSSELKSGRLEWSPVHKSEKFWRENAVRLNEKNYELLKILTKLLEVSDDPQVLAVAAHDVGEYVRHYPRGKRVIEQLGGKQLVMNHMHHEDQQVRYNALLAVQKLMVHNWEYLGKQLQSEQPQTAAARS
UniProt P38606, whole entry, looked up: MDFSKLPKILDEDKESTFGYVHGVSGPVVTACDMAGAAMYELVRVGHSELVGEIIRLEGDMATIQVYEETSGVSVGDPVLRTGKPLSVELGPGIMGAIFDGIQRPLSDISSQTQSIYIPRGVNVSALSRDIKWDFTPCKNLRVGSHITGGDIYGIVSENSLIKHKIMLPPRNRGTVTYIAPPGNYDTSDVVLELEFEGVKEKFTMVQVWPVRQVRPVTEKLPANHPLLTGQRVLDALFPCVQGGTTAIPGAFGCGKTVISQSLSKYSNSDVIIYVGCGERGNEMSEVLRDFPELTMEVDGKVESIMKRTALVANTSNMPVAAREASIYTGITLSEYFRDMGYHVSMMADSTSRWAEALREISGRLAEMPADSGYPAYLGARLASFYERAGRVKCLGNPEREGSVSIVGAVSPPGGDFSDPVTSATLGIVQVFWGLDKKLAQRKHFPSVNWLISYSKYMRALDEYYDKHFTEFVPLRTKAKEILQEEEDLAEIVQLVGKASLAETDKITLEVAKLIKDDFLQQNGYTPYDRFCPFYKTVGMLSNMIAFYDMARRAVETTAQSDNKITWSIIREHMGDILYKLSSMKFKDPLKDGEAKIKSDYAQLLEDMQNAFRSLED
UniProt Q8NBU5: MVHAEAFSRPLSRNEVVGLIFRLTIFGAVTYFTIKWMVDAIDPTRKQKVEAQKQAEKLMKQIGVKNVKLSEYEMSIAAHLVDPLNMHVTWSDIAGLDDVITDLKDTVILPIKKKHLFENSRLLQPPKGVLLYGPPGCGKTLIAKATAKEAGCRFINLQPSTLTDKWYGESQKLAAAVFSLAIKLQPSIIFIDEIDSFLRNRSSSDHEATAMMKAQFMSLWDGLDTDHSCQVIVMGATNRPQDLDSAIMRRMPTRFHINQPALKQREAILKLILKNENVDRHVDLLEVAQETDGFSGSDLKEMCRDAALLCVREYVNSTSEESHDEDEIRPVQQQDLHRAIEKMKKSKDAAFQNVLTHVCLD
UniProt P56134: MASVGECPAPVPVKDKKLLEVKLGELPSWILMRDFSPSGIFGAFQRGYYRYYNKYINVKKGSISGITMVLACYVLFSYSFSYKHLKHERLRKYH

Compound: Cc1cc(ccc1-c1ccccc1)C(=O)N1CCCN(CC1)C(=O)CCl [compound 10]
Experiment: probe-labelled cysteine peptide fold change vs DMSO (competition) (log2 fold change); higher = less target engagement (more negative = stronger competition)
Settings: THP-1, incubation time: 4 h
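Note: competitive profiling in live THP-1 cells: cysteine peptides tagged with an iodoacetamide desthiobiotin (IA-DTB) probe, intensity after compound treatment relative to DMSO-treated cells.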

Target	probe-labelled cysteine peptide fold change (10 µM)	probe-labelled cysteine peptide fold change (50 µM)
ARV1_Q9H2C2_30_GNVDGVAATPTAASASCQYR (UniProt Q9H2C2)	0.067	0.00307
ATG3_Q9NT62_264_TVTIENHPHLPPPPMCSVHPCR (UniProt Q9NT62)	0.234	0.197
ATR_Q13535_1430_AQDSAAYAIQELLSIYDCR (UniProt Q13535)	-0.165	-0.00628
ATG7_O95352_524_QQGAGDLCPNHPVASADLLGSSLFANIPGYK (UniProt O95352)	-0.121	-0.282
ATP2A3_Q93084_471_AGACNTVIK (UniProt Q93084)	-0.0334	-0.0279
ATOX1_O00244_41_KVCIESEHSMDTLLATLKK (UniProt O00244)	0.623	-0.15
ATP6V1G1_O75348_69_GSCSTEVEK (UniProt O75348)	-0.212	-0.663
ATP13A1_Q9HD20_862_ELGYVTLMCGDGTNDVGALK (UniProt Q9HD20)	0.0559	-0.0554
ATP5S_Q99766_111_IQAIDATDSCIMSIGFDHMEGLEHVEK (UniProt Q99766)	-0.0574	-0.615
ATAD2_Q6PL18_1270_IACNGDASSSQIIHISDENEGK (UniProt Q6PL18)	-0.186	-0.0745
ASCC3_Q8N3C0_1315_HPPHTELLDLQPLPITALGCK (UniProt Q8N3C0)	0.0925	0.138
ATP2C1_P98194_348_KLPIVETLGCCNVICSDK (UniProt P98194)	0.0347	0.0758
ASPM_Q8IZT6_441_IPECQGSK (UniProt Q8IZT6)	-0.0773	-0.131
ATP6V1H_Q9UI12_226_FAWVEADGVNCIMGVLSNK (UniProt Q9UI12)	0.158	0.427
ATP13A1_Q9HD20_969_LSSIQCICHVIK (UniProt Q9HD20)	-0.0153	-0.325
ATG3_Q9NT62_259+264_TVTIENHPHLPPPPMCSVHPCR (UniProt Q9NT62)	-0.121	-0.716
ATRN_O75882_657_SEAACLAAGPGIR (UniProt O75882)	-0.107	0.00071
ATAD2_Q6PL18_649_SICAEAALCALR (UniProt Q6PL18)	-0.0977	0.142
ATPAF1_Q5TC12_321_CAQNQNK (UniProt Q5TC12)	-0.351	-0.446
ATP2B4_P23634_24_EGDFGCTVMELRK (UniProt P23634)	-0.325	-0.62
ATM_Q13315_1495_SFSLCCDLLSQVCQTAVTYCK (UniProt Q13315)	0.0614	-0.0028

Part of the list above in a different format:
Target,probe-labelled cysteine peptide fold change (10 µM),probe-labelled cysteine peptide fold change (50 µM)
ATP2C1_P98194_348_KLPIVETLGCCNVICSDK (UniProt P98194),0.0347,0.0758
ATM_Q13315_1495_SFSLCCDLLSQVCQTAVTYCK (UniProt Q13315),0.0614,-0.0028

(listing goes on)

Target	probe-labelled cysteine peptide fold change (10 µM)	probe-labelled cysteine peptide fold change (50 µM)
ATP6V1A_P38606_254_VLDALFPCVQGGTTAIPGAFGCGK (UniProt P38606)	0.228	-0.0429
ATP2A2_P16615_560_CLALATHDNPLRR (UniProt P16615)	0.117	0.0483
ATRX_P46100_220_DSDGMDEQCR (UniProt P46100)	-0.206	-0.539
ATAD1_Q8NBU5_359_DAAFQNVLTHVCLD (UniProt Q8NBU5)	-0.369	-0.114
ATP13A1_Q9HD20_336_SPQENLVPCDVLLLR (UniProt Q9HD20)	0.172	0.0583
ATP2A2_P16615_875_VSFYQLSHFLQCK (UniProt P16615)	-0.0468	0.206
ATM_Q13315_2801_YRPNDFSAFQCQK (UniProt Q13315)	-0.0922	-0.0782
ATP5PO_P48047_141_GEVPCTVTSASPLEEATLSELK (UniProt P48047)	0.0624	0.273
ATM_Q13315_2323_KLDASCAANNPSLK (UniProt Q13315)	-0.12	-0.242
ATM_Q13315_2753_KLTICTYK (UniProt Q13315)	-0.14	-0.192
ATAD2_Q6PL18_1246_NNSNTCNIENELEDSRK (UniProt Q6PL18)	-0.37	0.0325
ATAD2B_Q9ULI0_100_QPDSVCK (UniProt Q9ULI0)	0.251	-0.0848
ASXL2_Q76L83_827_ATATVASVSHPQGPSSCR (UniProt Q76L83)	-0.00999	0.0852
ATM_Q13315_2112_NMQWDHCTSVSK (UniProt Q13315)	-0.249	-0.607
ARSB_P15848_117+121_TGLQHQIIWPCQPSCVPLDEK (UniProt P15848)	-0.126	0.189
ASMTL_O95671_305_GLLTACK (UniProt O95671)	-0.0702	-0.148
ASB3_Q9Y575_295_VSPVYSAVFGGHEDCLEILLR (UniProt Q9Y575)	0.0716	-0.785
ATP2A2_P16615_669_DACLNAR (UniProt P16615)	-0.128	-0.193
ATR_Q13535_2497_HGENILFDSLTGECVHVDFNCLFNK (UniProt Q13535)	0.328	0.4
ATAD1_Q8NBU5_137_GVLLYGPPGCGK (UniProt Q8NBU5)	-0.015	0.109
ATP6V1B2_P21281_162_VFNGSGKPIDRGPVVLAEDFLDIMGQPINPQCR (UniProt P21281)	-0.249	-0.147

Target	probe-labelled cysteine peptide fold change (10 µM)	probe-labelled cysteine peptide fold change (50 µM)
ATG7_O95352_406_QPLYEFEDCLGGGKPK (UniProt O95352)	-0.0902	-0.11
ATG2A_Q2TAZ0_811_CSLEVILPSVHIFLPSK (UniProt Q2TAZ0)	0.0238	-0.0458
ATP13A1_Q9HD20_755_VVMITGDNPLTACHVAQELHFIEK (UniProt Q9HD20)	0.0541	0.126
ASNS_P08243_43+44_FENVNGYTNCCFGFHR (UniProt P08243)	0.0396	-0.187
ASPHD2_Q6ICH7_200_NFQTILCEFETLYK (UniProt Q6ICH7)	-0.0155	-0.283
ATAD2_Q6PL18_1156_TPSTPVACSTPAQLKR (UniProt Q6PL18)	-0.115	-0.518
ATP8B4_Q8TF62_734_NFSNGHVVCEK (UniProt Q8TF62)	-0.24	-0.721
ATL3_Q6DD88_256+262_NHIHSCFSDVTCFLLPHPGLQVATSPDFDGK (UniProt Q6DD88)	0.137	-0.0197
ATP2B4_P23634_24_EGDFGCTVMELR (UniProt P23634)	-0.125	-0.0376
ATP6V1A_P38606_240_VLDALFPCVQGGTTAIPGAFGCGK (UniProt P38606)	0.0882	-0.0453
ATP11B_Q9Y2G3_741_SDSECAEQLR (UniProt Q9Y2G3)	0.0144	0.0989
ATXN10_Q9UBB4_134_CGLQFLGNIASR (UniProt Q9UBB4)	0.169	0.631
ASAP1_Q9ULH1_557_TCSTSSAK (UniProt Q9ULH1)	-0.0474	-0.132
ATP6V0A1_Q93050_58_CEEMDRK (UniProt Q93050)	0.00118	0.055
ATAD2_Q6PL18_1057_DIDLICSNALEYNPDRDPGDR (UniProt Q6PL18)	0.188	0.142
ATRX_P46100-6_537_GGADCQEVPQDK (UniProt P46100)	-0.2	-0.283
ASAP2_O43150_354_LNLLTCQVK (UniProt O43150)	0.315	0.0897
ATM_Q13315_2991_ALYLQQRPEDETELHPTLNADDQECK (UniProt Q13315)	-0.396	-0.796
ASCC3_Q8N3C0_366_AGEDLEVSEGLMCFDPK (UniProt Q8N3C0)	-0.425	-0.157
ATM_Q13315_1821_CEILQLLK (UniProt Q13315)	-0.358	-0.124
ATP13A1_Q9HD20_410_ATTGLKPVDSGCVAYVLR (UniProt Q9HD20)	0.133	0.0894

Quoted from the results shown for reference:
Target	probe-labelled cysteine peptide fold change (10 µM)	probe-labelled cysteine peptide fold change (50 µM)
ATP13A1_Q9HD20_969_LSSIQCICHVIK (UniProt Q9HD20)	-0.0153	-0.325
ATG3_Q9NT62_259+264_TVTIENHPHLPPPPMCSVHPCR (UniProt Q9NT62)	-0.121	-0.716
ATRN_O75882_657_SEAACLAAGPGIR (UniProt O75882)	-0.107	0.00071

(further entries)

Target	probe-labelled cysteine peptide fold change (10 µM)	probe-labelled cysteine peptide fold change (50 µM)
ATP6V1H_Q9UI12_312_QEYALAMIQCK (UniProt Q9UI12)	0.00511	0.175
ATP6V1B2_P21281_162_GPVVLAEDFLDIMGQPINPQCR (UniProt P21281)	0.109	0.268
ATP6V1A_P38606_532_FCPFYK (UniProt P38606)	-0.116	0.0728
ATP5MF_P56134_7_ASVGECPAPVPVK (UniProt P56134)	-0.371	-0.182
ATP2B1_P20020_463+473_HLDACETMGNATAICSDK (UniProt P20020)	-0.241	0.05
ATP2A3_Q93084_498_SMSVYCTPTRPHPTGQGSK (UniProt Q93084)	0.115	-0.0619
ASCC2_Q9H1I8_276_HDFCYR (UniProt Q9H1I8)	-0.0234	0.0515
ASB1_Q9Y576_36_EQFCDHPLEHCEDTR (UniProt Q9Y576)	-0.348	-0.0192
ASCC3_Q8N3C0_2101_GKPESCAVTPR (UniProt Q8N3C0)	0.0246	-0.0464
ATP5F1A_P25705_244_LYCIYVAIGQK (UniProt P25705)	-0.468	0.438
ASAP1_Q9ULH1_627_TADQTSLHLVDFLVQNCGNLDK (UniProt Q9ULH1)	-0.0155	-0.0181
ATM_Q13315_2753_LTICTYK (UniProt Q13315)	0.0277	-0.0362
ATP8B2_P98198_426_CSINGHSYGDVFDVLGHK (UniProt P98198)	0.32	0.371
ATRN_O75882_101_ECDRPCVNGGR (UniProt O75882)	-0.0415	-0.118
ATP1A1_P05023_211_IISANGCK (UniProt P05023)	-0.646	-0.287
ASPSCR1_Q9BZE9_224+225_GDLSRPEDADTSGPCCEHTQEK (UniProt Q9BZE9)	-0.786	-1.37
ARV1_Q9H2C2_37_CIECNQEAK (UniProt Q9H2C2)	0.0941	0.213
ARRB2_P32121_126_KLGQHAHPFFFTIPQNLPCSVTLQPGPEDTGK (UniProt P32121)	-0.12	-0.146
ASH1L_Q9NR48_157_KADDVAAIECQSEEVIR (UniProt Q9NR48)	-0.535	-0.127
ATP2B1_P20020_547_TECALLGLLLDLKR (UniProt P20020)	-0.138	-0.507
